According to patent publication US8871735B2, “Methods and compositions for providing cardiac protection” (University of Medicine and Dentistry of New Jersey, priority 2008, dated 2014):
Some results were stated once for a whole list of compounds, not compound by compound. At least one structure is not confirmed: it was looked up by name or label, or the drawing left a doubt.

Test system: AC5
Experiment: cAMP production in membrane preparations from mouse striatum (AC5 about 80% of total AC activity)
Assay type: biochemical
Settings: 50 μM forskolin, 10 μM drug

SMILES: Cc1cn([C@H]2C[C@H](N=[N+]=[N-])[C@@H](COP(=O)(O)OP(=O)(O)OP(=O)(O)O)O2)c(=O)[nH]c1=O [zidovudine-TP, zidovudine triphosphate]
- inhibition in the striatum membrane: more than 50%
